This series can be described thus: general procedure: Fmoc solid-phase peptide synthesis; Rink amide resin; preloaded Wang resin (Novabiochem); HBTU/HOBt/DIEA; PyBOP/HOBt/DIEA for Baa. The note with it: whole synthesis.

Take “Glu-Ile-Ala-Gln-Leu-Glu-Baa-Glu-Ile-Ser-Gln-Leu-Glu-Gln-NH2”: the isolated mass is reported as 8.5 mg and the isolated yield came to 6.8%.
The corresponding values for “Baa-Lys(FITC)-Glu-Glu-Glu-Glu-Gly-Gly-Gly-Ser-CO2H (EEEEGGGS; N-terminal Baa-Lys(FITC); printed: Glu-Glu-Glu-Glu-Gly-Gly-Gly-Ser-)” are 8.4 mg and 7.4%.
The substance “Baa-Glu-Glu-Glu-Glu-Gly-Gly-Gly-Ser-CO2H (EEEEGGGS; N-terminal Baa fullerene amino acid; printed: Glu-Glu-Glu-Glu-Gly-Gly-Gly-Ser-)” had an isolated mass of 21.8 mg and an isolated yield of 24.9%.
Substance “Baa-Arg-Gln-Ile-Lys-Ile-Trp-Phe-Gln-Asn-Arg-Arg-Met-Lys-Trp-Lys-Lys-OH” displayed an isolated mass of 58.7 mg and an isolated yield of 36.9%.
The corresponding values for “Baa-Lys(FITC)-Lys-Lys-Lys-Lys-Lys-Lys-Lys-Lys-CO2H” are 54.2 mg and 43.4%.
“Baa-Lys(FITC)-Pro-Lys-Lys-Lys-Arg-Lys-Val-Ser-Cys-OH” came in with an isolated mass of 34.5 mg and an isolated yield of 27.3%.
The substance “Baa-Glu-Glu-Glu-Glu-Gly-Gly-Gly-Gly-Ser-Cys-OH” gave an isolated mass of 8.0 mg and an isolated yield of 8.5%.
With “Baa-(Lys)10Lys(FITC)-Pro-Lys-Lys-Lys-Arg-Lys-Val-Ser-Cys-OH”, the isolated mass stood at 98.3 mg and the isolated yield is 51.6%.
In turn, “Baa-Glu-Ile-Ala-Gln-Leu-Glu-Tyr-Glu-Ile-Ser-Gln-Leu-Glu-Gln-NH2 (EIAQLEYEISQLEQ; N-terminal Baa fullerene amino acid; C-amide; printed: Glu-Ile-Ala-Gln-Leu-Glu-Tyr-Glu-Ile-Ser-Gln-Leu-Glu-Gln-)” came in with an isolated mass of 20.6 mg and an isolated yield of 15.4%.
The corresponding values for “Baa-Glu-Ile-Ala-Gln-Leu-Glu-Tyr-Glu-Ile-Ser-Gln-Leu-Glu-Gln-Glu-Ile-Gln-Ala-Leu-Glu-Ser-NH2 (EIAQLEYEISQLEQEIQALES; N-terminal Baa fullerene amino acid; C-amide; printed: Glu-Ile-Ala-Gln-Leu-Glu-Tyr-Glu-Ile-Ser-Gln-Leu-Glu-Gln-Glu-Ile-Gln-Ala-Leu-Glu-Ser-)” are 8.8 mg and 8.7%.
